Results published in publication PMC9953989.
Results are given in words; binding and its absence hold for the method and conditions named. Binding seen in cells or lysates may run through a third protein. Some binding calls cover weakened binding; strength is not graded here. Sequences can lack the tags named with a protein.

By UniProt entry, the sequences of proteins in these tests, tags left out.
UniProt Q16665: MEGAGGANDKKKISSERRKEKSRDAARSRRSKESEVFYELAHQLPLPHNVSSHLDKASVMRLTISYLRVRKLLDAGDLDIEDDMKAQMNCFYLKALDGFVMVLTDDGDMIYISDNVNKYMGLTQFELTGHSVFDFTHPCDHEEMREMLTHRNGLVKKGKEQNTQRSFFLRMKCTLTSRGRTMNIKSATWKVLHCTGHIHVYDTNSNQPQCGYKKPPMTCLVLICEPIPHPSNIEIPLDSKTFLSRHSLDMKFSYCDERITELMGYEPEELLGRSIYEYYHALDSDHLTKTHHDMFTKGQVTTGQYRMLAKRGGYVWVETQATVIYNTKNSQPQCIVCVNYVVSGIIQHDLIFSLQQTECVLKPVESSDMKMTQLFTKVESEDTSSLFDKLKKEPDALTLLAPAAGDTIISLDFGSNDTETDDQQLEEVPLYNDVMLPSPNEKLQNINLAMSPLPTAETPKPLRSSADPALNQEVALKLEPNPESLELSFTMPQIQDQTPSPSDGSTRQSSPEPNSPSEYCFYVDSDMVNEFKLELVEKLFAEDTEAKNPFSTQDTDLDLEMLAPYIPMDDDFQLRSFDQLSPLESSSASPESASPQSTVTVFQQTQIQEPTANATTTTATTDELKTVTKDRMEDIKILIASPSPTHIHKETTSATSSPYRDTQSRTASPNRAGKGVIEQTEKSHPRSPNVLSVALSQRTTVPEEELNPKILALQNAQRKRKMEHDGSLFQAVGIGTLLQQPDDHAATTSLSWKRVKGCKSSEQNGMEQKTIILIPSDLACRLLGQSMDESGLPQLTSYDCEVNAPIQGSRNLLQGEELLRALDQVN

Experiments:
[1] = target: T1, FLAG-tagged HDAC8 (histone deacetylase 8) (UniProt Q9BY41); assay: co-IP; HEK-293T cells co-transfected with FLAG-HDAC8 and HA-HIF-1α; IP with IgG or anti-FLAG antibodies and A/G beads at 4 °C overnight, washed with lysis buffer (300 mM NaCl); immunoblot with antibodies against FLAG and HA
T1 sequence: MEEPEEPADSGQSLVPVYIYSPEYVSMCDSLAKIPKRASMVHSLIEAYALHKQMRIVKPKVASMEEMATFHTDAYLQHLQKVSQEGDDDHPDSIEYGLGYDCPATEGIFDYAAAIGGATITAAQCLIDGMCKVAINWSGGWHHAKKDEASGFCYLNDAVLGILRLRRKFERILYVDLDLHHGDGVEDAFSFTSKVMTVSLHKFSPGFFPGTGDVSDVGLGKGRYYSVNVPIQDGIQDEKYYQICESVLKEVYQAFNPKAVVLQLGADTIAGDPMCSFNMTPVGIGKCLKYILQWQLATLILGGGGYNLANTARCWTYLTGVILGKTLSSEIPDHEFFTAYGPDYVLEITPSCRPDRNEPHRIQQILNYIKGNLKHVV

[2] = target: T2, endogenous HDAC8 (histone deacetylase 8) (human (endogenous in A2058)) (UniProt Q9BY41); assay: co-IP; endogenous proteins in A2058 cells treated with 100 µM CoCl2 for 12 h; IP with IgG or HDAC8 antibody and A/G beads at 4 °C overnight, washed with lysis buffer (300 mM NaCl); immunoblot with antibodies against HDAC8 and HIF-1α
T2 sequence: T1 sequence

binding [1] | binding [2] | Substance
binds | – | HA-tagged HIF-1α (hypoxia-inducible factor-1 α) (from UniProt Q16665 1-826)
– | binds | endogenous HIF-1α (hypoxia-inducible factor-1 α) (from UniProt Q16665 1-826)
